From US20200231691A1
These are yes or no findings as the source states them, for the method shown. Some entries that bind do so weakly or less than the wild type.

Target: T1, murine EpCAM (murine) (UniProt Q99JW5)
T1 sequence: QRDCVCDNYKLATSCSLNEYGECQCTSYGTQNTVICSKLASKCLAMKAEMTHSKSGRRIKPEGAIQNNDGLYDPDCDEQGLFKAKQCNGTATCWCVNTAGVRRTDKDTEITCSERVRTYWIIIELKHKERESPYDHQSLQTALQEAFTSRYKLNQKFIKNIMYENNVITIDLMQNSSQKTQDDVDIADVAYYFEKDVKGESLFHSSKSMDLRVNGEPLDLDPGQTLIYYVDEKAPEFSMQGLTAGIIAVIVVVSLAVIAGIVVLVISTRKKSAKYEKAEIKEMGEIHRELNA
Test: flow cytometry, CT26muEpCAM cells

binding: binds
B1: monospecific, bivalent anti-murine EpCAM IgG (parental bivalent anti-muEpCAM antibody) (antibody, V domains shown)
VH: EVQLAESGGGLVQPGRSMKLSCAASGFTFSNFPMAWVRQAPTKGLEWVATISTSGGSTYYRDSVKGRFTISRDNAKSTLYLQMNSLRSEDTATYYCTRTLYILRVFYFDYWGQGVMVTVSS
VL: DIQMTQSPASLSASLGETVSIECLASEGISNDLAWYQQKSGKSPQLLIYATSRLQDGVPSRFSGSGSGTRYSLKISGMQPEDEADYFCQQSYKYPWTFGGGTKLELK
